The values below come from doi:10.1101/2024.09.19.613927.

Amino acid sequences for entries named in this document (tags omitted).
UniProt P42858: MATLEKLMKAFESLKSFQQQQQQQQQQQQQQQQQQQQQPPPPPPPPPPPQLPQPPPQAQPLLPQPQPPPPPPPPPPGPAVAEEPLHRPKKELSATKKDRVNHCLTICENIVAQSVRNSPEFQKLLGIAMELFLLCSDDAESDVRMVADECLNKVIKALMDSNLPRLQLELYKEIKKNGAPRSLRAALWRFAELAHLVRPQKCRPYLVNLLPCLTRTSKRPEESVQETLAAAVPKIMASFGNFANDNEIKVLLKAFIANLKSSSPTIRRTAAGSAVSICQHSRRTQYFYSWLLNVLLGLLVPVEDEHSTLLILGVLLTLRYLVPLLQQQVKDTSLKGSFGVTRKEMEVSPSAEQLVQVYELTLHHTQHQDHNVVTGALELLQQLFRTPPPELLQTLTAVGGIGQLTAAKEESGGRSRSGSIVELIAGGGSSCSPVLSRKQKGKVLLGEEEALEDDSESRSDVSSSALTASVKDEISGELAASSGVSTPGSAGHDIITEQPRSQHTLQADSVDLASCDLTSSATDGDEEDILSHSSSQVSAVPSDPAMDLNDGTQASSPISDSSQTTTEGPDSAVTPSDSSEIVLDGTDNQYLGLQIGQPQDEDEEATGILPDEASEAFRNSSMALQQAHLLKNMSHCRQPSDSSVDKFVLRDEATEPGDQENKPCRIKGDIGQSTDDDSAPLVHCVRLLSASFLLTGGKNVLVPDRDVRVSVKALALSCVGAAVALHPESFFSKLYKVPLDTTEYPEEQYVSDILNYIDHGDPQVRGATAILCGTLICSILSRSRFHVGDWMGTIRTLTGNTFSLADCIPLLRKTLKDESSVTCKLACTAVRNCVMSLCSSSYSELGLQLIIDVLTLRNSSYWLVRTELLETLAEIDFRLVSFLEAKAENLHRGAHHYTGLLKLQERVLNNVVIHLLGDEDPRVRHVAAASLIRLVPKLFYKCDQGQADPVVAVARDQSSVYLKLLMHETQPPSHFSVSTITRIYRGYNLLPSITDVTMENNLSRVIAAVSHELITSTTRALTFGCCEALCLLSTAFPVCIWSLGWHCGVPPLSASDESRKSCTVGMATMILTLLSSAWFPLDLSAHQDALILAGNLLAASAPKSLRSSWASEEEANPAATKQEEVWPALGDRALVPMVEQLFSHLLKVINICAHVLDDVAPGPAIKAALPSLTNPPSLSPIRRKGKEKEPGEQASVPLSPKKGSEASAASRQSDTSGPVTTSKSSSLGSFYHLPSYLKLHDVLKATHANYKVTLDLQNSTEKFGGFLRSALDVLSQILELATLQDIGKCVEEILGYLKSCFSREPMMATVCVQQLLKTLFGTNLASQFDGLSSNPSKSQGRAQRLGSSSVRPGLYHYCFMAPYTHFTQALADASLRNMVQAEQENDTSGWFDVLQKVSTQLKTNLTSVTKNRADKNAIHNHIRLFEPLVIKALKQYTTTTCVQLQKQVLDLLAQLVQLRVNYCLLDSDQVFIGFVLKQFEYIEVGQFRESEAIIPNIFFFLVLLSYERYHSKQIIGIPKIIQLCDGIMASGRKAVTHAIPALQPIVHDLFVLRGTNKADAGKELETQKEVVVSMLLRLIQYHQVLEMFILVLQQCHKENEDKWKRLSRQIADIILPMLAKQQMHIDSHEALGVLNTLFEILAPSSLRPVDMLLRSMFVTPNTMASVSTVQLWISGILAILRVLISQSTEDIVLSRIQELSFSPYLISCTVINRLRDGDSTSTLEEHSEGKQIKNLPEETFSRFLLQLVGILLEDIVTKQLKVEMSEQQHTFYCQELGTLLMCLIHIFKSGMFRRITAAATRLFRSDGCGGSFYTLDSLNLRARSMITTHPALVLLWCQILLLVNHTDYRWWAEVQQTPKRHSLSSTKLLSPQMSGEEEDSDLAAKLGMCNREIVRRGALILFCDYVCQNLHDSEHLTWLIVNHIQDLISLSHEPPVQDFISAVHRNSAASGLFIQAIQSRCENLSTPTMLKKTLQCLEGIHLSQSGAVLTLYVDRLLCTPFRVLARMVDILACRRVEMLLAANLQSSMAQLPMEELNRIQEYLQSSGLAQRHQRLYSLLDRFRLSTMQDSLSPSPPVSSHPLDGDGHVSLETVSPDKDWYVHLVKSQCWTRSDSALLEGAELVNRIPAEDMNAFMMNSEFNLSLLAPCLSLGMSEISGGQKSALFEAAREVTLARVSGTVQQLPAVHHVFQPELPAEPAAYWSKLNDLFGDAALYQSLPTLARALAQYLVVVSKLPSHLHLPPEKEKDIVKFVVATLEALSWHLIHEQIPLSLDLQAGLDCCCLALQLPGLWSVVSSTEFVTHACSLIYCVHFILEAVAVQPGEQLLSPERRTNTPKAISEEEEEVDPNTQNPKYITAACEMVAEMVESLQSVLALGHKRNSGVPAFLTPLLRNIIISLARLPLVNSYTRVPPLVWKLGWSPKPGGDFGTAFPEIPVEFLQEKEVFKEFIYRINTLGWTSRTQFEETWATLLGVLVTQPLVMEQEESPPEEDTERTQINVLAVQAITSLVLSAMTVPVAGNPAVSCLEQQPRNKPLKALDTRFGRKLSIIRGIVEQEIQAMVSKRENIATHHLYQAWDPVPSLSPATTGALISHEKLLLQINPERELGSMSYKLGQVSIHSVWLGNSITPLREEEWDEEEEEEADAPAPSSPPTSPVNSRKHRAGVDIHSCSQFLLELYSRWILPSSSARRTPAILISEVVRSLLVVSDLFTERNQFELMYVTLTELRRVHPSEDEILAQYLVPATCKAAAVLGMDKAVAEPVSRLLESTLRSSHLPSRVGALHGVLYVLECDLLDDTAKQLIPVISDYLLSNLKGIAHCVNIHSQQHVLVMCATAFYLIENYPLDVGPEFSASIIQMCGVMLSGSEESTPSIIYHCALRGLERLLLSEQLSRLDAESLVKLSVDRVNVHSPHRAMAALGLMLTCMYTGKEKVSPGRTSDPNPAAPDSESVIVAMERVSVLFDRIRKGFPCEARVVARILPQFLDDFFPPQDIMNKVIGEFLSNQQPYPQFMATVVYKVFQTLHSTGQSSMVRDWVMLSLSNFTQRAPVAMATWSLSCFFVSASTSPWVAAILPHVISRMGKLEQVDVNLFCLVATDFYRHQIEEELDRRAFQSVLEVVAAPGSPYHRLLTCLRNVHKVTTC
UniProt Q12888: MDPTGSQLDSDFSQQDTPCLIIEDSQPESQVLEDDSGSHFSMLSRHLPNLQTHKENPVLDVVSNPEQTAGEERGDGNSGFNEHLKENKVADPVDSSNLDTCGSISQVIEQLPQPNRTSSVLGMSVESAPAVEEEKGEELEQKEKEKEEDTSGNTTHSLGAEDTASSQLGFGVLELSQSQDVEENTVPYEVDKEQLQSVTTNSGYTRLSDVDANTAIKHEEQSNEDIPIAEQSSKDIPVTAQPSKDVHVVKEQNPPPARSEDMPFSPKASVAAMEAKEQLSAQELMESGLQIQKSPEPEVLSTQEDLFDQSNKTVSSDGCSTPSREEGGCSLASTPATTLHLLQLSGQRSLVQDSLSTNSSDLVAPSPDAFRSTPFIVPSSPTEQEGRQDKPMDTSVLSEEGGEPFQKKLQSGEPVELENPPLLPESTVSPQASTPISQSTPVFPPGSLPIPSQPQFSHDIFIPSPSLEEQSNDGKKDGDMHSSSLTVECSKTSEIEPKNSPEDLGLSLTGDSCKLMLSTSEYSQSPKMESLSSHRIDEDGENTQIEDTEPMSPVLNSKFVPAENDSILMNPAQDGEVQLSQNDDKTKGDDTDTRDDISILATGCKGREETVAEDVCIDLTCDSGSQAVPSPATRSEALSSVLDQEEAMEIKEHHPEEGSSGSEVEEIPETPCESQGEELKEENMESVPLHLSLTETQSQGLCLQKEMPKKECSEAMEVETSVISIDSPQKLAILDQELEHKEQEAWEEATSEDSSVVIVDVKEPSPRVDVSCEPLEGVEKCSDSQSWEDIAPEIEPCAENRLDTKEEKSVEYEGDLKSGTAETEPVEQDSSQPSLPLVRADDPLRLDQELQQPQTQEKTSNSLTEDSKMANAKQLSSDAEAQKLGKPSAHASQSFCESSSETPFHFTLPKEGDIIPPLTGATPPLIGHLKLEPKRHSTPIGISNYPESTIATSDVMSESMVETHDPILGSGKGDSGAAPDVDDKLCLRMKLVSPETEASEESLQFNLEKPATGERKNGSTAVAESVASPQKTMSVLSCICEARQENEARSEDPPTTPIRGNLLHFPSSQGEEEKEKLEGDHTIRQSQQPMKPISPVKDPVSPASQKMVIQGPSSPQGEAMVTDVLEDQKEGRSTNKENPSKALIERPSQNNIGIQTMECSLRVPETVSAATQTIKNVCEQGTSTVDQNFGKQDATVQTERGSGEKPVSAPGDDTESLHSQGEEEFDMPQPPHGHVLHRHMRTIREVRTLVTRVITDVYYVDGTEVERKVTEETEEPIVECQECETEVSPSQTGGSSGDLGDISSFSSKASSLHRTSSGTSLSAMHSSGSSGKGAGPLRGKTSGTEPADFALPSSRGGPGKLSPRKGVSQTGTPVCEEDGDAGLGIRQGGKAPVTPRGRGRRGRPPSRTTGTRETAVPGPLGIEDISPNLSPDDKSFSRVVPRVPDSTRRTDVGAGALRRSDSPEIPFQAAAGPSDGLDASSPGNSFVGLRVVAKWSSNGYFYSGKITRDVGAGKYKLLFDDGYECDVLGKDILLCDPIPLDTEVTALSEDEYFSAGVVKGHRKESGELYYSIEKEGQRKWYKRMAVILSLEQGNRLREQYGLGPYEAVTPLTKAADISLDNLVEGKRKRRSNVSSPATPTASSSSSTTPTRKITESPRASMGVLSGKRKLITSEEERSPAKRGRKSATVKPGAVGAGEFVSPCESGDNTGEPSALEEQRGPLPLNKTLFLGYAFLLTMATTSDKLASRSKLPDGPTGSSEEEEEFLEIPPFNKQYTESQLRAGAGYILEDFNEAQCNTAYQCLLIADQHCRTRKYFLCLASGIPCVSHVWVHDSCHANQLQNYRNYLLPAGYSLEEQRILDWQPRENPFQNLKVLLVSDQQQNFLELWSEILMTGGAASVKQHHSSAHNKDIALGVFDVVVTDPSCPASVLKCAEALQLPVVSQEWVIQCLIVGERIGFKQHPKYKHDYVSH
UniProt P12956: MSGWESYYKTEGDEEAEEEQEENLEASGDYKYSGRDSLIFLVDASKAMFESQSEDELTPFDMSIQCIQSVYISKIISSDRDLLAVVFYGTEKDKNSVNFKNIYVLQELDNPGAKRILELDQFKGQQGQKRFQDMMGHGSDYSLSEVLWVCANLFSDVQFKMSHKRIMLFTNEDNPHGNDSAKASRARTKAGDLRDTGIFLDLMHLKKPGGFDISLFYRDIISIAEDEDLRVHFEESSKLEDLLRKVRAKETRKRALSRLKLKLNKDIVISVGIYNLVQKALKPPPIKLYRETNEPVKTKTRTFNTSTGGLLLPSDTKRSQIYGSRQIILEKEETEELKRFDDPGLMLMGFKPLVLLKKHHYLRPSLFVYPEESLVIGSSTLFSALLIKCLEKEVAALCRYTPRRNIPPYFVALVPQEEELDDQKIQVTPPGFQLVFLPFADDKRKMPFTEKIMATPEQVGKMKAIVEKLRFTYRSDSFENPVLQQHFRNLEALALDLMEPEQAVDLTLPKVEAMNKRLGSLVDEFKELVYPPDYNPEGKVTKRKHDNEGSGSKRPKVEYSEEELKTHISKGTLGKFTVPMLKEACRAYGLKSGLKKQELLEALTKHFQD
UniProt Q13426: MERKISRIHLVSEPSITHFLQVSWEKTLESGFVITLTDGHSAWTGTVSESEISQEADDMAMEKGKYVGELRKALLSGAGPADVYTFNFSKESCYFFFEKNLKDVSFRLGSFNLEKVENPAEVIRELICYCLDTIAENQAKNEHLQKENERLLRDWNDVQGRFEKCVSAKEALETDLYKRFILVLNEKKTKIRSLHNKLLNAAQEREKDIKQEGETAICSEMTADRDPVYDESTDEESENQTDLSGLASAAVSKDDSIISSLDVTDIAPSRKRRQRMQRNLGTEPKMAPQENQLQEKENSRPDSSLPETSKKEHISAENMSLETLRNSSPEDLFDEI

These are yes or no findings as the source states them, for the method shown. In cells and extracts the contact can be indirect. These calls come from enrichment with a bait or labelling near it, and not all partners need be listed.

For the experiment, the target named is huntingtin (HTT) (human (endogenous in SH-SY5Y)) (UniProt P42858). Briefly: affinity purification with mass spectrometry.
RAD50 (from UniProt Q92878 1-1312): the binding result is reported as “binds”.

For the substance “53BP1 (p53-binding protein 1) (from UniProt Q12888 1-1972)”, the binding entry is reported as “binds”.

For the substance “Ku70 (XRCC6) (from UniProt P12956 1-609)”, the binding entry was “binds”. With “Ku80 (XRCC5) (from UniProt P13010 1-732)”, the binding result is reported as “binds”. Next, “PNKP (polynucleotide kinase 3'-phosphatase) (from UniProt Q96T60 1-521) (enzyme)”: “binds”; XRCC4 (from UniProt Q13426 1-336): “binds”.
